{"source": "PubChem BioAssay AID1159600 (NIAID, 2016)", "purpose": "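Effect of silencing core TLR signalling genes on R848-induced TNF reporter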 (primary screen)", "system": "human THP-1 TNF reporter clone B5, made macrophage-like with PMA", "reagent": "single siRNA against human genes", "timing": "4 h ligand stimulation, assayed 48 to 72 h after siRNA transfection", "conditions": "R848 (TLR7/8 agonist) for 4 hours before lysis; dose not given", "detection": "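TNF promoter firefly to renilla luciferase ratio after 4 h R848, scaled per plate by median and MAD, robust z-score against negative controls, mean of replicates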", "direction": "TNF reporter z-score: higher = stronger TNF promoter reporter signal after R848", "active means": "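siRNAs graded by distance of mean z-score from zero in steps of 1, 1.5, 2 and 2.5; active calls sit at roughly -1.5 or below, or 1.5 or above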", "meaning of the calls": "active = strong change in TNF reporter (up or down); inactive = little change", "note": "In all, the deposit lists 756 reagents; shown is a part drawn at random. In the full data, 134 (18%) are marked active. 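Active includes both reduced and increased reporter signal, though most active siRNAs reduce it; R848 dose unknown.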 Reagents against one gene are numbered here. Not given: the amount of reagent."}
{"gene": "MAP2K4 (mitogen-activated protein kinase kinase 4)", "reagent": 1, "TNF reporter z-score": -0.551, "outcome": "inactive"}
{"gene": "MAP2K4 (mitogen-activated protein kinase kinase 4)", "reagent": 2, "TNF reporter z-score": -1.75, "outcome": "active"}
{"gene": "MAP2K4 (mitogen-activated protein kinase kinase 4)", "reagent": 3, "TNF reporter z-score": 0.0873, "outcome": "inactive"}
{"gene": "MAP2K4 (mitogen-activated protein kinase kinase 4)", "reagent": 4, "TNF reporter z-score": 0.615, "outcome": "inactive"}
{"gene": "MAP2K4 (mitogen-activated protein kinase kinase 4)", "reagent": 5, "TNF reporter z-score": -0.562, "outcome": "inactive"}
{"gene": "MAP2K4 (mitogen-activated protein kinase kinase 4)", "reagent": 6, "TNF reporter z-score": -0.00607, "outcome": "inactive"}
{"gene": "ELF4 (E74 like ETS transcription factor 4)", "reagent": 1, "TNF reporter z-score": -2.84, "outcome": "active"}
{"gene": "ELF4 (E74 like ETS transcription factor 4)", "reagent": 2, "TNF reporter z-score": -2.52, "outcome": "active"}
{"gene": "ELF4 (E74 like ETS transcription factor 4)", "reagent": 3, "TNF reporter z-score": -1.33, "outcome": "inactive"}
{"gene": "ELF4 (E74 like ETS transcription factor 4)", "reagent": 4, "TNF reporter z-score": -0.613, "outcome": "inactive"}
{"gene": "ELF4 (E74 like ETS transcription factor 4)", "reagent": 5, "TNF reporter z-score": -1.33, "outcome": "inactive"}
{"gene": "ELF4 (E74 like ETS transcription factor 4)", "reagent": 6, "TNF reporter z-score": -0.927, "outcome": "inactive"}
{"gene": "IRF5 (interferon regulatory factor 5)", "reagent": 1, "TNF reporter z-score": -2.93, "outcome": "active"}
{"gene": "IRF5 (interferon regulatory factor 5)", "reagent": 2, "TNF reporter z-score": -1.09, "outcome": "inactive"}
{"gene": "IRF5 (interferon regulatory factor 5)", "reagent": 3, "TNF reporter z-score": -0.816, "outcome": "inactive"}
{"gene": "IRF5 (interferon regulatory factor 5)", "reagent": 4, "TNF reporter z-score": -0.26, "outcome": "inactive"}
{"gene": "IRF5 (interferon regulatory factor 5)", "reagent": 5, "TNF reporter z-score": -1.17, "outcome": "inactive"}
{"gene": "IRF5 (interferon regulatory factor 5)", "reagent": 6, "TNF reporter z-score": 0.573, "outcome": "inactive"}
{"gene": "MAP3K8 (mitogen-activated protein kinase kinase kinase 8)", "reagent": 1, "TNF reporter z-score": -1.87, "outcome": "active"}
{"gene": "MAP3K8 (mitogen-activated protein kinase kinase kinase 8)", "reagent": 2, "TNF reporter z-score": -1.28, "outcome": "inactive"}
{"gene": "MAP3K8 (mitogen-activated protein kinase kinase kinase 8)", "reagent": 3, "TNF reporter z-score": -1.59, "outcome": "active"}
{"gene": "MAP3K8 (mitogen-activated protein kinase kinase kinase 8)", "reagent": 4, "TNF reporter z-score": -1.43, "outcome": "inactive"}
{"gene": "MAP3K8 (mitogen-activated protein kinase kinase kinase 8)", "reagent": 5, "TNF reporter z-score": -2.71, "outcome": "active"}
{"gene": "MAP3K8 (mitogen-activated protein kinase kinase kinase 8)", "reagent": 6, "TNF reporter z-score": -0.0437, "outcome": "inactive"}

Laid out differently: 5 of the entries above
gene	reagent	TNF reporter z-score	outcome
IRF5 (interferon regulatory factor 5)	2	-1.09	inactive
IRF5 (interferon regulatory factor 5)	3	-0.816	inactive
IRF5 (interferon regulatory factor 5)	4	-0.26	inactive
IRF5 (interferon regulatory factor 5)	5	-1.17	inactive
IRF5 (interferon regulatory factor 5)	6	0.573	inactive

The list goes on.
{"gene": "IL6 (interleukin 6)", "reagent": 1, "TNF reporter z-score": 0.977, "outcome": "inactive"}
{"gene": "IL6 (interleukin 6)", "reagent": 2, "TNF reporter z-score": -1.09, "outcome": "inactive"}
{"gene": "IL6 (interleukin 6)", "reagent": 3, "TNF reporter z-score": -0.682, "outcome": "inactive"}
{"gene": "IL6 (interleukin 6)", "reagent": 4, "TNF reporter z-score": -0.636, "outcome": "inactive"}
{"gene": "IL6 (interleukin 6)", "reagent": 5, "TNF reporter z-score": -0.786, "outcome": "inactive"}
{"gene": "IL6 (interleukin 6)", "reagent": 6, "TNF reporter z-score": -0.0653, "outcome": "inactive"}
{"gene": "PIK3R2 (phosphoinositide-3-kinase regulatory subunit 2)", "reagent": 1, "TNF reporter z-score": 0.0386, "outcome": "inactive"}
{"gene": "PIK3R2 (phosphoinositide-3-kinase regulatory subunit 2)", "reagent": 2, "TNF reporter z-score": -1.37, "outcome": "inactive"}
{"gene": "PIK3R2 (phosphoinositide-3-kinase regulatory subunit 2)", "reagent": 3, "TNF reporter z-score": 0.327, "outcome": "inactive"}
{"gene": "PIK3R2 (phosphoinositide-3-kinase regulatory subunit 2)", "reagent": 4, "TNF reporter z-score": -0.854, "outcome": "inactive"}
{"gene": "PIK3R2 (phosphoinositide-3-kinase regulatory subunit 2)", "reagent": 5, "TNF reporter z-score": 1.09, "outcome": "inactive"}
{"gene": "PIK3R2 (phosphoinositide-3-kinase regulatory subunit 2)", "reagent": 6, "TNF reporter z-score": 0.194, "outcome": "inactive"}
{"gene": "NFKBIE (NFKB inhibitor epsilon)", "reagent": 1, "TNF reporter z-score": -1.44, "outcome": "inactive"}
{"gene": "NFKBIE (NFKB inhibitor epsilon)", "reagent": 2, "TNF reporter z-score": -1.85, "outcome": "active"}
{"gene": "NFKBIE (NFKB inhibitor epsilon)", "reagent": 3, "TNF reporter z-score": -0.575, "outcome": "inactive"}
{"gene": "NFKBIE (NFKB inhibitor epsilon)", "reagent": 4, "TNF reporter z-score": -0.821, "outcome": "inactive"}
{"gene": "NFKBIE (NFKB inhibitor epsilon)", "reagent": 5, "TNF reporter z-score": -1.83, "outcome": "active"}
{"gene": "NFKBIE (NFKB inhibitor epsilon)", "reagent": 6, "TNF reporter z-score": -1.98, "outcome": "active"}
{"gene": "CREBBP (CREB binding lysine acetyltransferase)", "reagent": 1, "TNF reporter z-score": 0.224, "outcome": "inactive"}
{"gene": "CREBBP (CREB binding lysine acetyltransferase)", "reagent": 2, "TNF reporter z-score": -0.0727, "outcome": "inactive"}
{"gene": "CREBBP (CREB binding lysine acetyltransferase)", "reagent": 3, "TNF reporter z-score": -0.317, "outcome": "inactive"}
{"gene": "CREBBP (CREB binding lysine acetyltransferase)", "reagent": 4, "TNF reporter z-score": 1.52, "outcome": "active"}
{"gene": "CREBBP (CREB binding lysine acetyltransferase)", "reagent": 5, "TNF reporter z-score": -1.12, "outcome": "inactive"}
{"gene": "CREBBP (CREB binding lysine acetyltransferase)", "reagent": 6, "TNF reporter z-score": -1.3, "outcome": "inactive"}
{"gene": "IL1B (interleukin 1 beta)", "reagent": 1, "TNF reporter z-score": 0.129, "outcome": "inactive"}
{"gene": "IL1B (interleukin 1 beta)", "reagent": 2, "TNF reporter z-score": 0.536, "outcome": "inactive"}
{"gene": "IL1B (interleukin 1 beta)", "reagent": 3, "TNF reporter z-score": -0.948, "outcome": "inactive"}
{"gene": "IL1B (interleukin 1 beta)", "reagent": 4, "TNF reporter z-score": -0.278, "outcome": "inactive"}
{"gene": "IL1B (interleukin 1 beta)", "reagent": 5, "TNF reporter z-score": 0.474, "outcome": "inactive"}
{"gene": "IL1B (interleukin 1 beta)", "reagent": 6, "TNF reporter z-score": -0.434, "outcome": "inactive"}
{"gene": "AKT2 (AKT serine/threonine kinase 2)", "reagent": 1, "TNF reporter z-score": -1.73, "outcome": "active"}
{"gene": "AKT2 (AKT serine/threonine kinase 2)", "reagent": 2, "TNF reporter z-score": -0.285, "outcome": "inactive"}
{"gene": "AKT2 (AKT serine/threonine kinase 2)", "reagent": 3, "TNF reporter z-score": -0.582, "outcome": "inactive"}
{"gene": "AKT2 (AKT serine/threonine kinase 2)", "reagent": 4, "TNF reporter z-score": -1.62, "outcome": "active"}
{"gene": "AKT2 (AKT serine/threonine kinase 2)", "reagent": 5, "TNF reporter z-score": 1.02, "outcome": "inactive"}
{"gene": "AKT2 (AKT serine/threonine kinase 2)", "reagent": 6, "TNF reporter z-score": 1.57, "outcome": "active"}
